For at least one compound, name, drawing or mass did not settle the structure.
System: Zucker diabetic fatty (ZDF) rat model
Assay: Chronic non-fasted blood glucose monitoring in ZDF rats, drug combined with pFUS ultrasound stimulation
Type: in vivo
Description: The following relates to the diabetic animal model used and the method of ultrasound neuromodulation. • Animal Model of Type 2 Diabetes • Zucker diabetic fatty (ZDF) rat model Adult male ZDF rats (Charles River, Kingston, NY USA) were ordered for arrival prior to 8 weeks of age. All animals were maintained on a high caloric rodent chow (Purina 5008), provided, with water, provided ad libitum. […] All procedures performed in accordance with the National Institutes of Health (NIH) Guidelines under protocols approved by the Institutional Animal Care and Use Committee (IACUC) of GE Global Research. ZDF animals were acclimated by daily handling to prevent stress-induced changes in circulating glucose. […] All rats were anesthetized at 1-4% isoflurane at 1 L/min O2. Rats were then placed on a water circulating warming pad, with a rectal thermometer probe to maintain body temperature. The abdominal area was completely shaved and the hair fully removed with Nair to allow for later stimulation of nerve plexus located in either the hepatic or GI systems. […] These locations were then marked with a permanent marker and a ultrasound stimulation probe was placed on the target area. The prototype pFUS device then delivered 3 minutes of stimulation (1.1 MHz, 150 burst cycles, 500 us burst period) Blood glucose levels of the rats were monitored on a daily basis for chronic studies and at 5-minute intervals for acute and OGTT studies. In chronic studies additional blood samples were collected on a weekly basis for the analysis of circulating markers. A final terminal blood sample was collected at the time of euthanization and used for the evaluation of circulating insulin levels. For the prototype pFUS device, stimulus (1.1 MHZ, 200 mV per pulse, 150 burst cycles, 500 us burst period) was applied to each region for 3 minutes per target. For example, pFUS was initially applied to the hepatic portal region for 3 minutes. […] There was an about 5 minute delay period in between stimulation of the first and second, or second and third anatomical target sites. […]

SMILES: CCCCCCCCCCCCCCCC(=O)N[C@@H](CCC(=O)NCCCC[C@H](NC(=O)[C@H](C)NC(=O)[C@H](C)NC(=O)[C@H](CCC(N)=O)NC(=O)CNC(=O)[C@H](CCC(=O)O)NC(=O)[C@H](CC(C)C)NC(=O)[C@H](Cc1ccc(O)cc1)NC(=O)[C@H](CO)NC(=O)[C@H](CO)NC(=O)[C@@H](NC(=O)[C@H](CC(=O)O)NC(=O)[C@H](CO)NC(=O)[C@@H](NC(=O)[C@H](Cc1ccccc1)NC(=O)[C@@H](NC(=O)CNC(=O)[C@H](CCC(=O)O)NC(=O)[C@H](C)NC(=O)[C@@H](N)Cc1cnc[nH]1)[C@@H](C)O)[C@@H](C)O)C(C)C)C(=O)N[C@@H](CCC(=O)O)C(=O)N[C@@H](Cc1ccccc1)C(=O)N[C@H](C(=O)N[C@@H](C)C(=O)N[C@@H](Cc1c[nH]c2ccccc12)C(=O)N[C@@H](CC(C)C)C(=O)N[C@H](C(=O)N[C@@H](CCCNC(=N)N)C(=O)NCC(=O)N[C@@H](CCCNC(=N)N)C(=O)NCC(=O)O)C(C)C)[C@@H](C)CC)C(=O)O [liraglutide]
- time until blood glucose rose above 200 mg/dL (post-ultrasound period) (drug alone, continued low dose liraglutide treatment, FIG. 7 data 200): ≤ 13 days
- time blood glucose remained under 200 mg/dL post-ultrasound (dual-site stimulus (hepatoportal plexus and superior mesenteric plexus) for 7 days plus low dose liraglutide, ultrasound cessation on day 8, FIG. 6 data 102): 56 days
- length of time remaining under 200 mg/dL (low dose liraglutide plus 7 days single site hepatoportal plexus stimulation, then just drug after day 8, FIG. 7 data 202): 21 days

— patent US12527977B2, “Combined neuromodulation techniques” (GE Precision Healthcare LLC, priority 2021, dated 2026)
